Record: PubChem BioAssay AID743121 (NCATS, 2013)

Purpose: 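Knock-downs that sensitise breast cancer cells to camptothecin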 (primary screen)
Cells: MDA-MB-231 cells, a human breast cancer line
Knock-down reagent: single siRNA against human genes, 20 nM siRNA (0.8 pmol per well)
Timing: 120 h (drug added 48 h after transfection, read 72 h later)
Challenge: camptothecin 20 nM (about EC30) for 72 h; vehicle 0.1% DMSO in parallel plates
Detection: 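Cell viability by ATP luminescence (CellTiter-Glo) as % of non-targeting siRNA wells, and the log2 ratio of viability without drug over viability with camptothecin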
Direction: log2 vehicle/camptothecin viability: higher = stronger sensitisation to camptothecin
Hit rule: 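Each gene scored by redundant siRNA activity (RSA) over its individual siRNA ratios; a gene is called active at p < 0.001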
Here is a random part of about 26,000 deposited reagents. 167 of them (0.63%) count as active. 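Calls are per gene from RSA p-values that are not deposited; an individual active-marked siRNA can sensitise only weakly.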 Reagents against one gene are numbered here. Further read-outs or replicates are left out here.

The opening 2 entries as a preview:
{"Gene": "WNK3 (GeneID 65267)", "reagent": 1, "log2 vehicle/camptothecin viability": 0.0201, "outcome": "inactive"}
{"Gene": "WNK3 (GeneID 65267)", "reagent": 2, "log2 vehicle/camptothecin viability": -0.186, "outcome": "inactive"}

Results, repeating the preview:
{"Gene": "WNK3 (GeneID 65267)", "reagent": 1, "log2 vehicle/camptothecin viability": 0.0201, "outcome": "inactive"}
{"Gene": "WNK3 (GeneID 65267)", "reagent": 2, "log2 vehicle/camptothecin viability": -0.186, "outcome": "inactive"}
{"Gene": "WNK3 (GeneID 65267)", "reagent": 3, "log2 vehicle/camptothecin viability": -0.205, "outcome": "inactive"}
{"Gene": "WNK3 (GeneID 65267)", "reagent": 4, "log2 vehicle/camptothecin viability": 0.935, "outcome": "inactive"}
{"Gene": "BRD1 (GeneID 23774)", "reagent": 1, "log2 vehicle/camptothecin viability": 0.805, "outcome": "inactive"}
{"Gene": "BRD1 (GeneID 23774)", "reagent": 2, "log2 vehicle/camptothecin viability": -0.0753, "outcome": "inactive"}
{"Gene": "BRD1 (GeneID 23774)", "reagent": 3, "log2 vehicle/camptothecin viability": -0.114, "outcome": "inactive"}
{"Gene": "BRD1 (GeneID 23774)", "reagent": 4, "log2 vehicle/camptothecin viability": -0.326, "outcome": "inactive"}
{"Gene": "FKBP8 (GeneID 23770)", "reagent": 1, "log2 vehicle/camptothecin viability": -0.342, "outcome": "inactive"}
{"Gene": "FKBP8 (GeneID 23770)", "reagent": 2, "log2 vehicle/camptothecin viability": -0.282, "outcome": "inactive"}
{"Gene": "FKBP8 (GeneID 23770)", "reagent": 3, "log2 vehicle/camptothecin viability": -0.0289, "outcome": "inactive"}
{"Gene": "FKBP8 (GeneID 23770)", "reagent": 4, "log2 vehicle/camptothecin viability": -0.243, "outcome": "inactive"}
{"Gene": "SSPN (GeneID 8082)", "reagent": 1, "log2 vehicle/camptothecin viability": 0.072, "outcome": "inactive"}
{"Gene": "SSPN (GeneID 8082)", "reagent": 2, "log2 vehicle/camptothecin viability": 0.124, "outcome": "inactive"}
{"Gene": "SSPN (GeneID 8082)", "reagent": 3, "log2 vehicle/camptothecin viability": 0.14, "outcome": "inactive"}
{"Gene": "SSPN (GeneID 8082)", "reagent": 4, "log2 vehicle/camptothecin viability": -0.108, "outcome": "inactive"}
